Test [1] addresses T1, CD28H (counter-receptor of B7-H5) (human) (UniProt Q96BF3).
T1 sequence: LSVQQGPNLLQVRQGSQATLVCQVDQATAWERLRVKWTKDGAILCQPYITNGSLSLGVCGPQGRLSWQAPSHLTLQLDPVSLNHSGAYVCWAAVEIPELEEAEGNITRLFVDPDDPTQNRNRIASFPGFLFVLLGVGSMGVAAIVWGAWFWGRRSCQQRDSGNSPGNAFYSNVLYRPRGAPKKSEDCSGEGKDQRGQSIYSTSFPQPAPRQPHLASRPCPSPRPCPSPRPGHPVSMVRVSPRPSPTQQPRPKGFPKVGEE
Nature of the test: inferred from T cell stimulation assay with B7-H5 Ig.

For test [2], the target named is B7-H5 Ig fusion (extracellular domain of B7-H5 fused to a murine IgG2a sequence) (human). Nature of the test: inhibition of B7-H5 Ig stimulation of T cells (figure legend).

These are yes or no findings as the source states them, for the method shown. Some binding calls cover weakened binding; strength is not graded here. For some assays here: Where a sequence is shown, tags or fusion partners need not be part of it.

B1: B7-H5 Ig fusion (extracellular domain of B7-H5 fused to a murine IgG2a sequence) (Fc fusion)
chain: IFPLAFFIYVPMNEQIVIGRLDEDIILPSSFERGSEVVIHWKYQDSYKVHSYYKGSDHLESQDPRYANRTSLFYNEIQNGNASLFFRRVSLLDEGIYTCYVGTAIQVITNKVVLKVGVFLTPVMKYEKRNTNSFLICSVLSVYPRPIITWKMDNTPISENNMEETGSLDSFSINSPLNITGSNSSYECTIENSLLKQTWTGRWTMKDGLHKMQSEHVSLSCQPVNDYFSPNQDFKVTWSRMKSGTFSVLAYYLSSSQNTIINESRFSWNKELINQSDFSMNLMDLNLSDSGEYLCNISSDEYTLLTIHTVHVEPSQETEPRGPTIKPCPPCKCPAPNLLGGPSVFIFPPKIKDVLMISLSPIVTCVVVDVSEDDPDVQISWFVNNVEVHTAQTQTHREDYNSTLRVVSALPIQHQDWMSGKEFKCKVNNKDLPAPIERTISKPKGSVRAPQVYVLPPPEEEMTKKQVTLTCMVTDFMPEDIYVEWTNNGKTELNYKNTEPVLDSDGSYFMYSKLRVEKKNWVERNSYSCSVVHEGLHNHHTTKSFSRTPGK
Consider B1, for which the binding entry in test [1] was “binds”.

B2: anti-human B7-H5 antibody 2D3 (hybridoma clone 2D3) (antibody, V domains shown)
VH: QVQLQQSGAELVKPGASVKLSCKASGYTFTSHDINWVRQRPELGLEWIGWIFPGDGSTKFNEKFKGKATLTTDKSSSTAYIQLSRLTSEDSAVYFCARNSFYSMDYWGQGTSVTVSS
VL: DIVMSQSPSSLAVSAGEKVTMSCKSSQSLLNSRTRKNQLAWYQQKPGQSPKLLIYWAFIRESGVPDRFTGSGSGTDFTLTISSVQAEDLAVYYCKQSYNLRTFGGGTKLEIK
notes: constant regions are not; also called Anti-Human B7-H5 Clone 2D3; 2D3 mAb
As for B2, the binding result in test [2] is reported as “binds”.

The values above are taken from patent publication US20160096891A1 (AstraZeneca / MedImmune, published 2016).
